Test results published in PMC11282289, “Serial X-ray liquidography: multi-dimensional assay framework for exploring biomolecular structural dynamics with microgram quantities” (Nature Communications, 2024).
Results are given in words; binding and its absence hold for the method and conditions named.

Columns and labels:
[1] = target: monomeric mutant of AtUVR8 (AtUVR8-R146A/R286A), residues 12-381 (Arabidopsis thaliana) (UniProt Q9FN03); test: static small angle X-ray scattering (SAXS); conventional static SAXS, flow cell, no laser (ground state); difference scattering between wild type and monomeric mutant; 25 mM Tris pH 7.5, 100 mM NaCl, 2 mM DTT; both purified
[2] = target: Arabidopsis thaliana UV-B resistance 8 (AtUVR8), wild type, residues 12-381 (Arabidopsis thaliana) (UniProt Q9FN03); test: time-resolved X-ray solution scattering (serial X-ray liquidography, SXL); AtUVR8 at 0.1 and 0.3 mM in SXL chip microchambers; 300 nm laser pulse (0.8 mJ/mm^2), delays 10 us to 316 ms; 25 mM Tris pH 7.5, 100 mM NaCl, 2 mM DTT; both purified

B1: monomeric mutant of AtUVR8 (AtUVR8-R146A/R286A), residues 12-381 (domain or fragment, UniProt Q9FN03 12-381)
chain: APPRKVLIISAGASHSVALLSGDIVCSWGRGEDGQLGHGDAEDRPSPTQLSALDGHQIVSVTCGADHTVAYSQSGMEVYSWGWGDFGRLGHGNSSDLFTPLPIKALHGIRIKQIACGDSHCLAVTMEGEVQSWGANQNGQLGLGDTEDSLVPQKIQAFEGIRIKMVAAGAEHTAAVTEDGDLYGWGWGRYGNLGLGDRTDRLVPERVTSTGGEKMSMVACGWRHTISVSYSGALYTYGWSKYGQLGHGDLEDHLIPHKLEALSNSFISQISGGWAHTMALTSDGKLYGWGWNKFGQVGVGNNLDQCSPVQVRFPDDQKVVQVSCGWRHTLAVTERNNVFAWGRGTNGQLGIGESVDRNFPKIIEALSVDG
binding [1]: no binding

B2: Arabidopsis thaliana UV-B resistance 8 (AtUVR8), wild type, residues 12-381 (domain or fragment, UniProt Q9FN03 12-381, looked up)
chain: APPRKVLIISAGASHSVALLSGDIVCSWGRGEDGQLGHGDAEDRPSPTQLSALDGHQIVSVTCGADHTVAYSQSGMEVYSWGWGDFGRLGHGNSSDLFTPLPIKALHGIRIKQIACGDSHCLAVTMEGEVQSWGRNQNGQLGLGDTEDSLVPQKIQAFEGIRIKMVAAGAEHTAAVTEDGDLYGWGWGRYGNLGLGDRTDRLVPERVTSTGGEKMSMVACGWRHTISVSYSGALYTYGWSKYGQLGHGDLEDHLIPHKLEALSNSFISQISGGWRHTMALTSDGKLYGWGWNKFGQVGVGNNLDQCSPVQVRFPDDQKVVQVSCGWRHTLAVTERNNVFAWGRGTNGQLGIGESVDRNFPKIIEALSVDG
notes: UV-B resistance 8 (UVR8), Arabidopsis thaliana, residues 12-381; Homodimer in the dark (ground) state; also called 2M-T-AtUVR8-His; source: E. coli BL21(DE3) GOLD, purified (IMAC, TEV cleavage, Q-Sepharose, MBPTrap flow-through); not shown: MBP-His-tag, N-terminal, cleaved
binding [2]: no binding (condition: after a 300 nm (UV-B) laser pulse)
